Measured values reported in the supplement of paper PMC10735217.
Structures can show the parent of a compound that is named as a salt. The list shows a part of the results. Repeats in this data set agree poorly, so a single value says little.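 In a drug-repurposing library screen, luminescence reads luciferase driven by eight TEAD-binding elements, stably integrated into human kidney-derived cells. Compounds scoring over five robust Z scores above the plate mean are called hits.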

Tested on: HEK293A TEAD-LUC reporter
Assay: TEAD-luciferase reporter activity (YAP activation), robust Z score vs plate; higher = stronger YAP/TEAD activation
Conditions: 24 h

Row | SMILES | TEAD-luciferase reporter activity (compound concentration: 200 nM) | TEAD-luciferase reporter activity (compound concentration: 2 uM) | TEAD-luciferase reporter activity (compound concentration: 10 uM)
1 | Cc1c(-c2ccccc2)c(-c2ccccc2)nn1-c1ccccc1 | inactive: -1.84 | inactive: -0.486 | inactive: -0.186
2 | CSc1nc(-c2cccc(NC(=O)CN3CCOCC3)c2)c2c(N)c(C(=O)NC(C)(C)C)sc2n1 | inactive: -0.41 | inactive: -2.24 | inactive: 1.37
3 | Clc1cc(OCc2ccccc2)ccc1OCc1ccccc1 | inactive: -1.33 | inactive: 1.98 | active: 5.31
4 | O=C(O)Cc1ccc2oc3ccccc3c2c1 | inactive: -1.85 | inactive: 0.326 | inactive: 0.455
5 | CN(C/C=C(/C#Cc1ccc(-c2ccoc2)cc1)c1ccccc1)CC(=O)O | inactive: -0.182 | inactive: 0.454 | inactive: -0.19
6 | CN(C(=O)CN(CCO)CC(=O)N(C)C(C)(C)Cc1ccccc1)C(C)(C)Cc1ccccc1 | inactive: -0.487 | inactive: 0.0433 | inactive: 0.278
7 | OC[C@H]1O[C@@H](n2c(Br)nc3cc(Cl)c(Cl)cc32)[C@H](O)[C@@H]1O | inactive: 0.948 | inactive: 0.932 | inactive: 1.38
8 | O=C(Cc1ccc(OCc2ccccc2)cc1)Nc1ccc2cnn(CCN3CCCC3)c2c1 | inactive: -1.65 | inactive: -1.15 | inactive: -0.821
9 | CC1=C(/C=C/C(C)=C/C=C/C(C)=C/C=C/C=C(C)/C=C/C=C(C)/C=C/C2=C(C)C(=O)CCC2(C)C)C(C)(C)CCC1=O | inactive: -0.865 | inactive: -0.422 | inactive: -0.392
10 | CC(C)C(=O)NCc1ccc(Cl)c(-c2nc3cc(-c4ccc(C(F)(F)F)cc4)ncc3c(=O)[nH]2)c1 | inactive: 0.346 | inactive: 1.46 | inactive: 2
11 | CC[C@@H](C)CCCCC(=O)N[C@@H](CCNCS(=O)(=O)[O-])C(=O)N[C@H](C(=O)N[C@@H](CCNCS(=O)(=O)[O-])C(=O)N[C@H]1CCNC(=O)[C@H]([C@@H](C)O)NC(=O)[C@H](CCNCS(=O)(=O)[O-])NC(=O)[C@H](CCNCS(=O)(=O)[O-])NC(=O)[C@H](CC(C)C)NC(=O)[C@@H](CC(C)C)NC(=O)[C@H](CCNCS(=O)(=O)[O-])NC1=O)[C@@H](C)O [Colistin A sodium methanesulfonate] | inactive: 1.55 | inactive: -0.456 | active: 7.96
12 | CC1(C)[C@H](NC(=O)/C(=N\OCC(=O)O)c2csc(N)n2)C(=O)N1OS(=O)(=O)O | inactive: -0.0545 | inactive: 0.91 | inactive: 1.54
13 | C[C@@H](Oc1ccc2[nH]nc(/C=C/c3cnn(CCO)c3)c2c1)c1c(Cl)cncc1Cl | inactive: -2.88 | inactive: -2.43 | inactive: 0.219
14 | CC12CCC(=O)C=C1CCC1C2C(O)CC2(C)C1CCC2(O)C(=O)CO (centres undefined) [hydrocortisone, Diurnal] | inactive: 0.0578 | inactive: 1.07 | inactive: -1.82
15 | CCNCCS(=O)(=O)NCC1(c2ccccc2)SC(NC(=O)C(C)(C)C)=NN1C(=O)C(C)(C)C (centres undefined) [litronesib] | active: 5.38 | inactive: -0.298 | inactive: 1.42
16 | O=C(c1cc(O)c(O)c(O)c1)c1ccc(O)c(O)c1O | inactive: -0.731 | inactive: -0.43 | inactive: -1.26
17 | O=C(c1cc(O)c(O)c(O)c1)c1ccc(O)c(O)c1O [Exifone] | – | inactive: 1.81 | –
18 | CNc1nc(Nc2ccc(-n3cnc(C)n3)c(OC)c2)nc2c1CC[C@@H]2c1ccc(F)cc1 | inactive: -0.888 | inactive: 0.36 | inactive: 1.14
19 | Cc1csc(NS(=O)(=O)c2ccc(N)cc2)n1 | inactive: 1.54 | inactive: -0.0761 | inactive: 0.746
20 | Cc1nc2cccc(N)c2c(=O)n1C1CCC(=O)NC1=O (centres undefined) | inactive: -0.693 | inactive: -0.414 | inactive: 0.4
21 | CC12CCC3c4ccc(O)cc4C=CC3C1CCC2=O (centres undefined) [_q_Delta(8,9)-dehydroestrone sulfate_q_] | inactive: 4.99 | inactive: -1.99 | inactive: 0.912
22 | Cn1c(=O)c2nc(CN3CCN(C(c4ccccc4)c4ccccc4)CC3)[nH]c2n(C)c1=O | inactive: 0.126 | inactive: 1.02 | inactive: 2.54
23 | O=C(O)c1cccc2c1OB(O)C(NC(=O)C1CC1)C2 (centres undefined) | inactive: -1.43 | – | inactive: 0.398
24 | O=C(O)C1=C(CSc2nnnn2CS(=O)(=O)[O-])CS[C@@H]2[C@H](NC(=O)[C@H](O)c3ccccc3)C(=O)N12 [cefonicid formulations] | inactive: -0.926 | inactive: 0.0441 | inactive: 0.326
25 | CCc1c(-c2ccccc2)[nH]n(C2CCN(C)CC2)c1=O | inactive: -0.277 | inactive: 0.705 | inactive: -0.597
26 | CC(=O)N1CCC(C(=O)N2CCC(c3ccccc3)CC2)CC1 | inactive: 2.1 | – | inactive: 3.65
27 | CNCC[C@@H](Oc1ccccc1C)c1ccccc1 [Atomoxetine hydrochloride] | inactive: -1.1 | – | inactive: 1.26

Row | SMILES | TEAD-luciferase reporter activity (compound concentration: 200 nM) | TEAD-luciferase reporter activity (compound concentration: 2 uM) | TEAD-luciferase reporter activity (compound concentration: 10 uM)
28 | CNCC[C@@H](Oc1ccccc1C)c1ccccc1 [Atomoxetine (hydrochloride)] | – | inactive: -1.07 | –
29 | Nc1sc(N)c2c1CCNC2 | inactive: 1.06 | inactive: -1.24 | inactive: 0.0148
30 | CCn1nc(-c2ccccc2)cc(Nc2cccc3ncccc23)c1=O | inactive: -1.7 | inactive: 3.25 | inactive: -0.221
31 | O=C(NCc1ccc(S(=O)(=O)N2CCC(n3nnc4ccccc43)CC2)s1)c1ccc(Cl)cc1 | inactive: 0.0724 | inactive: -1.98 | inactive: -1.37
32 | O=C(Nc1cccc(C(F)(F)F)c1)Nc1ccccc1C(=O)O | active: 5.74 | inactive: 0.158 | active: 8
33 | CCCc1cc2c(O)c(C(=O)OC)cnc2cc1N(CC)CC [Amquinate] | inactive: -0.876 | – | inactive: -1.32
34 | CCCc1cc2c(O)c(C(=O)OC)cnc2cc1N(CC)CC | – | inactive: -0.906 | –
35 | CCN1C[C@@H]([C@H](O)[C@H](CC2CCCCC2)NC(=O)[C@H](Cc2cnc[nH]2)NC(=O)[C@@H](CC(=O)N(C)CCOCOCCOC)Cc2ccccc2)OC1=O | inactive: -1.55 | inactive: 0.255 | inactive: -1.04
36 | O=C(NC[C@H]1CN(c2ccc(N3CCOCC3=O)cc2)C(=O)O1)c1ccc(Cl)s1 [rivaroxaban (extended release)] | inactive: -0.0915 | inactive: 1.98 | inactive: -0.597
37 | COCCOc1cnc2ccn([C@H](C)c3nnc4c(F)cc(-c5cnn(C)c5)cn34)c(=O)c2c1 | inactive: 0.604 | inactive: -1.1 | inactive: 3.47
38 | COc1ccc2nc3[nH]nc(C)c3c(SCc3ccco3)c2c1 | inactive: 0.37 | inactive: -0.205 | inactive: -0.446
39 | Cc1ccc(S(=O)(=O)NC(=O)N[C@H]2[C@@H](O)[C@@]3(C)CC[C@@H]2C3(C)C)cc1 | inactive: -1.34 | inactive: -1.56 | inactive: -0.484
40 | COc1cc(C)c2c(Oc3cccc(C(F)(F)F)c3)c(OC)cc(NC(C)CCCN)c2n1 (centres undefined) [tafenoquine] | – | inactive: -2.31 | –
41 | COc1cc(C)c2c(Oc3cccc(C(F)(F)F)c3)c(OC)cc(NC(C)CCCN)c2n1 (centres undefined) | inactive: -0.734 | – | inactive: 1.94
42 | Cc1cc(/C=C/c2cccs2)cc(C)c1O [metabolite of BIL 357] | inactive: 0.221 | inactive: 0.403 | inactive: 2.48
43 | N#CC(=C(/N)Sc1ccccc1N)/C(C#N)=C(\N)Sc1ccccc1N | inactive: 0.209 | inactive: 0.339 | inactive: 0.231
44 | Cn1ccc(S(=O)(=O)N2CCCC(Nc3nccc(-c4c(-c5cccc(OCOP(=O)([O-])[O-])c5)nc5occn45)n3)C2)n1 (centres undefined) | inactive: 0.458 | inactive: -1.59 | inactive: -1.4
45 | CN(CCO)c1nc2c(c(=O)n(C)c(=O)n2C)n1C | inactive: -0.931 | inactive: -0.898 | inactive: -1.67
46 | N[C@@H](CCC(=O)O)C(=O)N1CCC[C@H]1B(O)O | inactive: 0.742 | inactive: -0.626 | inactive: -0.141
47 | COCCN1CCC(N(Cc2ccc(-c3ccc(C(F)(F)F)cc3)cc2)C(=O)C2CCC(=O)N2)CC1 (centres undefined) | inactive: -1.74 | inactive: 0.00815 | inactive: -0.567
48 | Clc1ccccc1Cn1ccnc1 | inactive: -0.847 | inactive: -0.756 | inactive: 0.672
49 | C=C1N[C@]2(C(=O)COC(C)=O)[C@@H](C[C@H]3[C@@H]4CCC5=CC(=O)C=C[C@]5(C)[C@H]4[C@@H](O)C[C@@]32C)O1 [deflazacort] | inactive: -0.837 | inactive: -1.27 | inactive: 2.36
50 | CC(C)=CCOc1cc(NC(=O)c2ccncc2)ccc1Cl | inactive: 3.21 | inactive: -0.643 | inactive: 2.37
51 | Cc1cc(CC(=O)O)n(C)c1C(=O)c1ccc(Cl)cc1 [Zomepirac sodium] | inactive: -0.0796 | inactive: -0.63 | inactive: 3.06
52 | Cn1cc(C[C@@H](N)C(=O)O)c2ccccc21 [indoximod] | inactive: 0.428 | inactive: -0.0181 | inactive: 1.12
53 | Fc1ccc(C(c2ccc(F)cc2)N2CCN(C/C=C/c3ccccc3)CC2)cc1 [flunarizine] | inactive: -0.276 | inactive: -0.17 | inactive: -0.155
54 | CC(=O)NCC(=O)O | inactive: -1.58 | inactive: -1.33 | inactive: -1.46

Rewritten field by field: entries from further up.
CCn1nc(-c2ccccc2)cc(Nc2cccc3ncccc23)c1=O
  TEAD-luciferase reporter activity (compound concentration: 200 nM): inactive: -1.7
  TEAD-luciferase reporter activity (compound concentration: 2 uM): inactive: 3.25
  TEAD-luciferase reporter activity (compound concentration: 10 uM): inactive: -0.221
O=C(NCc1ccc(S(=O)(=O)N2CCC(n3nnc4ccccc43)CC2)s1)c1ccc(Cl)cc1
  TEAD-luciferase reporter activity (compound concentration: 200 nM): inactive: 0.0724
  TEAD-luciferase reporter activity (compound concentration: 2 uM): inactive: -1.98
  TEAD-luciferase reporter activity (compound concentration: 10 uM): inactive: -1.37
